Data published in patent US20240043417A1, “COMPOUNDS FOR THE TREATMENT OF SARS” (Purdue Research Foundation, priority 2020, published 2024).
At least one compound was matched to its structure with a doubt left.

Test system: SARS-CoV-2
Experiment: Cytopathic effect of SARS-CoV-2 in Vero-E6 cells (FIG. 1 micrograph)
Type: cell-based
Conditions: Vero-E6 cells infected with SARS-CoV-2; pictures taken on day 3 following exposure

| Compound | cytopathic effect (CPE) of SARS-CoV-2 |
| --- | --- |
| O=C(Oc1cncc(Cl)c1)c1cccc2c1CCN2 [GRL-1720S] | significantly block the cytopathic effect (CPE) |
| COc1cccc2[nH]c(C(=O)N[C@@H](CC(C)C)C(=O)N[C@@H](C[C@@H]3CCNC3=O)C(=O)c3nc4ccccc4s3)cc12 [GRL-2420S] | significantly block the cytopathic effect (CPE) |
